Results on 2 substances are retold here after paper PMC9626503.

Amino acid sequences for entries named in this document (tags omitted).
UniProt Q9C005: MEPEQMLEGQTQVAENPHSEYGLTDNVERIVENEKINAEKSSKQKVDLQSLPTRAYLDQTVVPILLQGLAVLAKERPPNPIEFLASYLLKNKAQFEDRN
UniProt Q15291: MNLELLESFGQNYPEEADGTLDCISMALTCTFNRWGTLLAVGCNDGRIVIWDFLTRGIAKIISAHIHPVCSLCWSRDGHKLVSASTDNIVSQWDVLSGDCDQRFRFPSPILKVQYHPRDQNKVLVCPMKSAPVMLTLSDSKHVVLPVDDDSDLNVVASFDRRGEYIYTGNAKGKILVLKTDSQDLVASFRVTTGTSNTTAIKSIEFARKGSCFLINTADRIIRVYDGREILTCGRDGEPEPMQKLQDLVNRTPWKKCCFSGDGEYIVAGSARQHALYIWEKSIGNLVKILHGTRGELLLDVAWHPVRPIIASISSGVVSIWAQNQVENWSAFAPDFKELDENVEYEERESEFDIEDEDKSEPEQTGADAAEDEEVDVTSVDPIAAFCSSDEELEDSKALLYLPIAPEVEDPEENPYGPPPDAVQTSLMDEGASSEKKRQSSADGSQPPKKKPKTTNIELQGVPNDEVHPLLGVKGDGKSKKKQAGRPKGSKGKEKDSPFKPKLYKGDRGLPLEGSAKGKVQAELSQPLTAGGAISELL

For the experiment, the target named is T1, FOXQ1 with C-terminal TAP-tag (pcDNA3.1-FOXQ1-(C)-STAP) (human) (UniProt Q9C009).
T1 sequence: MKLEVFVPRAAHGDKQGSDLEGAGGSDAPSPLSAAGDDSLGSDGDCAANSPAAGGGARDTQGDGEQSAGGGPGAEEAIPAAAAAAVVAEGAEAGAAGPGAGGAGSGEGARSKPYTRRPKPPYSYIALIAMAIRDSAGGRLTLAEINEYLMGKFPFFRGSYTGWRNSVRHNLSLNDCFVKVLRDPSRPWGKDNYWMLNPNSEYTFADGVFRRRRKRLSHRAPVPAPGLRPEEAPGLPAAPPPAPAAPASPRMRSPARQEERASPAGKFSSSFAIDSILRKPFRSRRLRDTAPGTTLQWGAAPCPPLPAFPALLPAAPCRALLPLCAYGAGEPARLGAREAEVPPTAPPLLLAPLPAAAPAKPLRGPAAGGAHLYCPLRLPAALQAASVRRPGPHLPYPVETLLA
Put plainly: affinity purification with mass spectrometry; tandem affinity purification (IgG beads, TEV cleavage, streptavidin beads) of C-terminally TAP-tagged FOXQ1 from transfected HEK293T cells; LacZ TAP-tag control; duplicate.

Results are given in words; binding and its absence hold for the method and conditions named. Binding seen in cells or lysates may run through a third protein. These calls come from enrichment with a bait or labelling near it, and not all partners need be listed. Sequences can lack the tags named with a protein.

As for “endogenous DPY30 (from UniProt Q9C005 1-99)”, the binding result was “binds”.

Take “endogenous RbBP5 (from UniProt Q15291 1-538)”: the binding result is on record as “binds”.
